Measurements reported in article PMC4855144.
No constants are given. Whether binding was seen depends on the method and setting. In cells and extracts the contact can be indirect. Binding can be weak; no strength is given.

Target: GFP-N-WASP ΔWA
Assay: co-IP; GFP microbeads precipitate GFP-N-WASP and fragments ΔWA, WH1, WH1-GBD from HEK293T cell extracts; endogenous CRN7 detected with mAb K37-142-1; ratio of co-IP to IP

B1: endogenous CRN7 (Coronin7) of HEK293T cells (protein, UniProt P57737 1-925)
chain: MNRFRVSKFRHTEARPPRRESWISDIRAGTAPSCRNHIKSSCSLIAFNSDRPGVLGIVPLQGQGEDKRRVAHLGCHSDLVTDLDFSPFDDFLLATGSADRTVKLWRLPGPGQALPSAPGVVLGPEDLPVEVLQFHPTSDGILVSAAGTTVKVWDAAKQQPLTELAAHGDLVQSAVWSRDGALVGTACKDKQLRIFDPRTKPRASQSTQAHENSRDSRLAWMGTWEHLVSTGFNQMREREVKLWDTRFFSSALASLTLDTSLGCLVPLLDPDSGLLVLAGKGERQLYCYEVVPQQPALSPVTQCVLESVLRGAALVPRQALAVMSCEVLRVLQLSDTAIVPIGYHVPRKAVEFHEDLFPDTAGCVPATDPHSWWAGDNQQVQKVSLNPACRPHPSFTSCLVPPAEPLPDTAQPAVMETPVGDADASEGFSSPPSSLTSPSTPSSLGPSLSSTSGIGTSPSLRSLQSLLGPSSKFRHAQGTVLHRDSHITNLKGLNLTTPGESDGFCANKLRVAVPLLSSGGQVAVLELRKPGRLPDTALPTLQNGAAVTDLAWDPFDPHRLAVAGEDARIRLWRVPAEGLEEVLTTPETVLTGHTEKICSLRFHPLAANVLASSSYDLTVRIWDLQAGADRLKLQGHQDQIFSLAWSPDGQQLATVCKDGRVRVYRPRSGPEPLQEGPGPKGGRGARIVWVCDGRCLLVSGFDSQSERQLLLYEAEALAGGPLAVLGLDVAPSTLLPSYDPDTGLVLLTGKGDTRVFLYELLPESPFFLECNSFTSPDPHKGLVLLPKTECDVREVELMRCLRLRQSSLEPVAFRLPRVRKEFFQDDVFPDTAVIWEPVLSAEAWLQGANGQPWLLSLQPPDMSPVSQAPREAPARRAPSSAQYLEEKSDQQKKEELLNAMVAKLGNREDPLPQDSFEGVDEDEWD
Question: How did the binding turn out when B1 was run?
Answer: binds
